Measured values: article PMC5393397
Results are given in words; binding and its absence hold for the method and conditions named. Binding seen in cells or lysates may run through a third protein. A yes stands for co-enrichment or nearness to the bait. Other partners may have been found.

Amino acid sequences for entries named in this document (tags omitted).
UniProt P63073: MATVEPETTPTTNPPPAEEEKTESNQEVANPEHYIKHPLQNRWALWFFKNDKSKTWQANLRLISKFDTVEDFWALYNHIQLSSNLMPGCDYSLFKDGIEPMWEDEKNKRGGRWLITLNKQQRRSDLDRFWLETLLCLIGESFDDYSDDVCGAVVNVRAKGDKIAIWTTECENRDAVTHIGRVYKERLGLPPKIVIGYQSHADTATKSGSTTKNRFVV
UniProt P10630: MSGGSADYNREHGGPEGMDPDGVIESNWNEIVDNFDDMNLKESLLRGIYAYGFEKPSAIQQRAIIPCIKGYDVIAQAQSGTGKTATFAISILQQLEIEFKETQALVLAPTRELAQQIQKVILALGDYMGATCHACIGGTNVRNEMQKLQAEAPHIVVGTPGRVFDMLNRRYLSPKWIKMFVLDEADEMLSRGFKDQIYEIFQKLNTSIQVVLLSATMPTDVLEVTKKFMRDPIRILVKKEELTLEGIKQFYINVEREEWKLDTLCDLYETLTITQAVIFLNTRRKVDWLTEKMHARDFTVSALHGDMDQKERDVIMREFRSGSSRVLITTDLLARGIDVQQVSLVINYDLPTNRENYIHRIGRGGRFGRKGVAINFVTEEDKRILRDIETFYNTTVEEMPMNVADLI
UniProt Q80XI3: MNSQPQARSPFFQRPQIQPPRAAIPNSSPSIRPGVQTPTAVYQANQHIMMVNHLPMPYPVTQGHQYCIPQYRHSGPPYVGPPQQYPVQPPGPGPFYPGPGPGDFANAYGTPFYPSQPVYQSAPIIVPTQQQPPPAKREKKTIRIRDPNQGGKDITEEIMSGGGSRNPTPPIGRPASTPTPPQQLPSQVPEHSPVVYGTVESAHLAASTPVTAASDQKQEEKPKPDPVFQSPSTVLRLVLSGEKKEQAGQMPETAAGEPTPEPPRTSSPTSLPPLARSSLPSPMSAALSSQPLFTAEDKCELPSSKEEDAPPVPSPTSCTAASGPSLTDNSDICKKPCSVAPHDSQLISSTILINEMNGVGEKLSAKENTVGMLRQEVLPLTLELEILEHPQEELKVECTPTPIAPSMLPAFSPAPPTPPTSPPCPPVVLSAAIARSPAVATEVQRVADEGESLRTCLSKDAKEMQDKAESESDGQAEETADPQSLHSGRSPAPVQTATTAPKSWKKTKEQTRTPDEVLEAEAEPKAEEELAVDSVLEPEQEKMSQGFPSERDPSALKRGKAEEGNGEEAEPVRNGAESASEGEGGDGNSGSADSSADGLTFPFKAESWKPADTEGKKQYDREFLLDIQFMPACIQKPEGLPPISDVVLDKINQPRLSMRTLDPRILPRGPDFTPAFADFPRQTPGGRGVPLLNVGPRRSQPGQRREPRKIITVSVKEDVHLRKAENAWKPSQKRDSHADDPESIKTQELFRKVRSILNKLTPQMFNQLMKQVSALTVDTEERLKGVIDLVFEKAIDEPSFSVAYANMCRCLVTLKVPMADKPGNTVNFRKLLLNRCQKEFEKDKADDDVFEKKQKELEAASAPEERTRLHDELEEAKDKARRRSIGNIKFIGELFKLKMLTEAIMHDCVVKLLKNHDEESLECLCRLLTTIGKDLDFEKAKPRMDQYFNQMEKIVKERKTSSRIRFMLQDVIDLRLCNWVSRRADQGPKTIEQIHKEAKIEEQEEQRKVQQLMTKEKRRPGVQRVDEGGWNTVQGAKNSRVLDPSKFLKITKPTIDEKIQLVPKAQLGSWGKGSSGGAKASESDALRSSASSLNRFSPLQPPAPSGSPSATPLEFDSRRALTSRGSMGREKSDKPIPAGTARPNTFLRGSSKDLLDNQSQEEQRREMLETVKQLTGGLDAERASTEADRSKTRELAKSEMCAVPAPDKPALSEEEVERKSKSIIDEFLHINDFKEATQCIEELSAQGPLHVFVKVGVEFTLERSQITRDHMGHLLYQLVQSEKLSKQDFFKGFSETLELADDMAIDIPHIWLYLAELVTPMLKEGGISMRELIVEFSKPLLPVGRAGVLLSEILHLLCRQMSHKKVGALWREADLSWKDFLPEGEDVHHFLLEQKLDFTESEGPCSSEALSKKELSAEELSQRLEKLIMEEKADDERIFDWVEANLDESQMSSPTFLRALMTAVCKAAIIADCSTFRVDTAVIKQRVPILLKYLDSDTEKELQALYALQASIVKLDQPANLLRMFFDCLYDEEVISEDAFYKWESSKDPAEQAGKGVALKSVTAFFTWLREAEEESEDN

B1: Dap5 (eIF4G2), the ~100 kDa short form (protein, UniProt Q62448 1-906)
chain: MESAIAEGGASRFSASSGGGGSRGAPQHYPKTAGNSEFLGKTPGQNAQKWIPARSTRRDDNSAANNSANEKERHDAIFRKVRGILNKLTPEKFDKLCLELLNVGVESKLILKGVILLIVDKALEEPKYSSLYAQLCLRLAEDAPNFDGPAAEGQPGQKQSTTFRRLLISKLQDEFENRTRNVDVYDKRENPLLPEEEEQRAIAKIKMLGNIKFIGELGKLDLIHESILHKCIKTLLEKKKRVQLKDMGEDLECLCQIMRTVGPRLDHERAKSLMDQYFARMCSLMLSKELPARIRFLLQDTVELREHHWVPRKAFLDNGPKTINQIRQDAVKDLGVFIPAPMAQGRSDFFLEGPFMPPRMKMDRDPLGGLADMFGQMPGSGIGTGPGVIQDRFSPTMGRHRSNQLFNGHGGHIMPPTQSQFGEMGGKFMKSQGLSQLYHNQSQGLLSQLQGQSKDMPPRFSKKGQLNADEISLRPAQSFLMNKNQVPKLQPQITMIPPSAQPPRTQTPPLGQTPQLGLKTNPPLIQEKPAKTSKKPPPSKEELLKLTEAVVTDYLNSGNANDAVSGVREMRAPKHFLPEMLSKVIILSLDRSDEDKEKASSLISLLKQEGIATSDNFMQAFLNVLEQCPKLEVDIPLVKSYLAQFAARAIISELVSISELAQPLESGTHFPLFLLCLQQLAKLQDREWLTELFQQSKVNMQKMLPEIDQNKDRMLEILEGKGLSFLFPLLKLEKELLKQIKLDPSPQTIYKWIKDNISPKLHVDKGFVNILMTSFLQYISSEVSPPSDETDSSSAPSKEQLEQEKQLLLSFKPVMQKFLHDHVDLQVSALYALQVHCYNSSFPKGMLLRFFVHFYDMEIIEEEAFLAWKEDITQEFPGKGKALFQVNQWLTWLETAEEEESEEEAD

Molecular target: eukaryotic initiation factor 4E (eIF4E), cap-binding protein (mouse (endogenous in BV-2)) (UniProt P63073)
Test: affinity purification with mass spectrometry; m7GTP-Sepharose enrichment of eIF4E-containing cap-binding complexes from SILAC-labelled BV-2 cells, mock (0 h), 4 h and 9 h after MNV infection (MOI 10); samples combined, SDS-PAGE, in-gel trypsin, LC-MS/MS; three biological replicates

| Molecule | binding |
| --- | --- |
| eIF4AII isoform of eIF4A (from UniProt P10630 1-407) | binds |
| eIF4GII (eIF4G3), the ~170 kDa long form (from UniProt Q80XI3 1-1579) | binds |
| B1 | binds |
